# Results are given in words; binding and its absence hold for the method and conditions named. Binding seen in cells or lysates may run through a third protein. For some of these results: Binding can be weak; no strength is given. For some of these results: Where a sequence is shown, tags or fusion partners need not be part of it.
# Protein sequences, listed by entry. Tags and fused reporters are not part of them. Lines headed by an entry give the natural chain unless they say otherwise; changes in a name come on top.
# UniProt Q08050: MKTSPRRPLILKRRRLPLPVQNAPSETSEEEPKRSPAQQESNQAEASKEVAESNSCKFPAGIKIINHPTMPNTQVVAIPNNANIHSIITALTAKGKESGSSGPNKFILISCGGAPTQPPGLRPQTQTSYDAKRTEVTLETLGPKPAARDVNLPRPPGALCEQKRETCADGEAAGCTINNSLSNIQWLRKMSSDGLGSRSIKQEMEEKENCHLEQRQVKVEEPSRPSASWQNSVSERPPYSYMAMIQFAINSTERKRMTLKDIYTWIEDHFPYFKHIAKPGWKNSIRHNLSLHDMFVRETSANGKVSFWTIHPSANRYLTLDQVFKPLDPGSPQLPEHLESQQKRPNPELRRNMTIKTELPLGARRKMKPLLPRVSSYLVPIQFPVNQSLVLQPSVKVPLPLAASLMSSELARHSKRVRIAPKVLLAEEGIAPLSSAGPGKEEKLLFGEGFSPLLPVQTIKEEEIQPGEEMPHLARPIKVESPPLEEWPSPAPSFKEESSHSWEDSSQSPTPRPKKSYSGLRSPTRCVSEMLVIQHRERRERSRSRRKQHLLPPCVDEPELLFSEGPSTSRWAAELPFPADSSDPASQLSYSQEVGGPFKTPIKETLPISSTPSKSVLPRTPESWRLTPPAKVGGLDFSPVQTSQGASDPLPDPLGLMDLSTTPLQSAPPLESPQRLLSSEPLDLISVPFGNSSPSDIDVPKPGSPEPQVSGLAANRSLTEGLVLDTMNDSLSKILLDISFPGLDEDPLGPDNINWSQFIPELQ
# How the values were obtained:
# [1] = target: FoxM1, endogenous (detected with pan-FoxM1 antibody) (human (endogenous in MCF7)); assay: co-IP; extracts of MCF7 cells, endogenous proteins; immunoprecipitated with Rb, CBP, FoxM1 or P3 (phospho-FoxM1) antibody; blots with pan-FoxM1, P3, CBP, Rb, DNMT3b antibodies; in one panel cells treated with BI 2536 (100 nM, 24 h) or DMSO
# [2] = target: GFP-FoxM1b S715A, S724A (AA); assay: co-IP; lysates (700-800 ug) of MCF7 cells transiently transfected with GFP-FoxM1b constructs, 48 h; immunoprecipitated with GFP antibody; blots for endogenous Rb, DNMT3b, CBP; in one panel with co-expressed kinase-active or kinase-dead Plk1
# [3] = target: GFP-FoxM1 full length (FL); assay: as above
# [4] = target: GFP fusion construct containing the N-terminal residues 1–332 of FoxM1 (UniProt Q08050); assay: as above
# [5] = target: GFP-FoxM1 mutant (232–748) (UniProt Q08050); assay: as above
# GFP-FoxM1b T596A = assay: as above
# GFP-FoxM1b (1–688) = assay: as above
# GFP-FoxM1:710–748 = GFP-FoxM1:710–748 (UniProt Q08050); assay: as above
# [6] = target: T7 tagged phosphodefective mutant (T596A) of FoxM1; assay: co-IP; lysates (800 ug) of MDA-MB-453 cells transiently transfected with T7-tagged FoxM1 constructs; immunoprecipitated with monoclonal T7 antibody; blots for endogenous CBP, Rb, DNMT3b
# [7] = target: GFP-FoxM1 full length (FL); assay: co-IP; Fig. S4: wild type and mutant FoxM1 tested for p130 and p107; cells and tag not told in the text shown
# [8] = target: GFP-FoxM1b S715D, S724D (DD); assay: as above
# [9] = target: T7-His tagged C-terminal FoxM1b (DD) mutant (508–748); assay: pull-down; E. coli lysates of T7-His FoxM1b (508-748) WT or DD mixed with lysates holding GST-Rb or GST-CBP-KIX, bound to Ni-NTA agarose columns, washed 10 times with 25 mM imidazole in PBS pH 7.5, eluted with 250 mM imidazole, blots with Rb antibody or GST antibody
# [10] = target: T7-His tagged C-terminal FoxM1b (residues 508–748), wild type (UniProt Q08050); assay: as above
binder,measurement,setting,value
"Retinoblastoma protein (Rb), endogenous (protein, UniProt P06400 1-928) MPPKTPRKTAATAAAAAAEPPAPPPPPPPEEDPEQDSGPEDLPLVRLEFEETEEPDFTALCQKLKIPDHVRERAWLTWEKVSSVDGVLGGYIQKKKELWGICIFIAAVDLDEMSFTFTELQKNIEISVHKFFNLLKEIDTSTKVDNAMSRLLKKYDVLFALFSKLERTCELIYLTQPSSSISTEINSALVLKVSWITFLLAKGEVLQMEDDLVISFQLMLCVLDYFIKLSPPMLLKEPYKTAVIPINGSPRTPRRGQNRSARIAKQLENDTRIIEVLCKEHECNIDEVKNVYFKNFIPFMNSLGLVTSNGLPEVENLSKRYEEIYLKNKDLDARLFLDHDKTLQTDSIDSFETQRTPRKSNLDEEVNVIPPHTPVRTVMNTIQQLMMILNSASDQPSENLISYFNNCTVNPKESILKRVKDIGYIFKEKFAKAVGQGCVEIGSQRYKLGVRLYYRVMESMLKSEEERLSIQNFSKLLNDNIFHMSLLACALEVVMATYSRSTSQNLDSGTDLSFPWILNVLNLKAFDFYKVIESFIKAEGNLTREMIKHLERCEHRIMESLAWLSDSPLFDLIKQSKDREGPTDHLESACPLNLPLQNNHTAADMYLSPVRSPKKKGSTTRVNSTANAETQATSAFQTQKPLKSTSLSLFYKKVYRLAYLRLNTLCERLLSEHPELEHIIWTLFQHTLQNEYELMRDRHLDQIMMCSMYGICKVKNIDLKFKIIVTAYKDLPHAVQETFKRVLIKEEEYDSIIVFYNSVFMQRLKTNILQYASTRPPTLSPIPHIPRSPYKFPSSPLRIPGGNIYISPLKSPYKISEGLPTPTKMTPRSRILVSIGESFGTSEKFQKINQMVCNSDRVLKRSAEGSNPPKPLKKLRFDIEGSDEADGSKHLPGESKFQQKLAEMTSTRTRMQKQKMNDSMDTSNKEEK",binding,[1],binds
same,binding,[2],binds
same,binding,[3],binds
same,binding,[4],no binding
same,binding,[5],binds
same,binding,GFP-FoxM1b T596A,binds
same,binding,GFP-FoxM1b (1–688),no binding
same,binding,GFP-FoxM1:710–748,no binding
same,binding,[6],binds
"Rb-family protein p107 (protein, UniProt P28749 1-1068) MFEDKPHAEGAAVVAAAGEALQALCQELNLDEGSAAEALDDFTAIRGNYSLEGEVTHWLACSLYVACRKSIIPTVGKGIMEGNCVSLTRILRSAKLSLIQFFSKMKKWMDMSNLPQEFRERIERLERNFEVSTVIFKKYEPIFLDIFQNPYEEPPKLPRSRKQRRIPCSVKDLFNFCWTLFVYTKGNFRMIGDDLVNSYHLLLCCLDLIFANAIMCPNRQDLLNPSFKGLPSDFHTADFTASEEPPCIIAVLCELHDGLLVEAKGIKEHYFKPYISKLFDRKILKGECLLDLSSFTDNSKAVNKEYEEYVLTVGDFDERIFLGADAEEEIGTPRKFTRDTPLGKLTAQANVEYNLQQHFEKKRSFAPSTPLTGRRYLREKEAVITPVASATQSVSRLQSIVAGLKNAPSDQLINIFESCVRNPVENIMKILKGIGETFCQHYTQSTDEQPGSHIDFAVNRLKLAEILYYKILETVMVQETRRLHGMDMSVLLEQDIFHRSLMACCLEIVLFAYSSPRTFPWIIEVLNLQPFYFYKVIEVVIRSEEGLSRDMVKHLNSIEEQILESLAWSHDSALWEALQVSANKVPTCEEVIFPNNFETGNGGNVQGHLPLMPMSPLMHPRVKEVRTDSGSLRRDMQPLSPISVHERYSSPTAGSAKRRLFGEDPPKEMLMDKIITEGTKLKIAPSSSITAENVSILPGQTLLTMATAPVTGTTGHKVTIPLHGVANDAGEITLIPLSMNTNQESKVKSPVSLTAHSLIGASPKQTNLTKAQEVHSTGINRPKRTGSLALFYRKVYHLASVRLRDLCLKLDVSNELRRKIWTCFEFTLVHCPDLMKDRHLDQLLLCAFYIMAKVTKEERTFQEIMKSYRNQPQANSHVYRSVLLKSIPREVVAYNKNINDDFEMIDCDLEDATKTPDCSSGPVKEERGDLIKFYNTIYVGRVKSFALKYDLANQDHMMDAPPLSPFPHIKQQPGSPRRISQQHSIYISPHKNGSGLTPRSALLYKFNGSPSKSLKDINNMIRQGEQRTKKRVIAIDSDAESPAKRVCQENDDVLLKRLQDVVSERANH",binding,[7],binds
same,binding,[8],binds weakly
"GST-Rb (residues 379–928) (domain or fragment, UniProt P06400 379-928) MNTIQQLMMILNSASDQPSENLISYFNNCTVNPKESILKRVKDIGYIFKEKFAKAVGQGCVEIGSQRYKLGVRLYYRVMESMLKSEEERLSIQNFSKLLNDNIFHMSLLACALEVVMATYSRSTSQNLDSGTDLSFPWILNVLNLKAFDFYKVIESFIKAEGNLTREMIKHLERCEHRIMESLAWLSDSPLFDLIKQSKDREGPTDHLESACPLNLPLQNNHTAADMYLSPVRSPKKKGSTTRVNSTANAETQATSAFQTQKPLKSTSLSLFYKKVYRLAYLRLNTLCERLLSEHPELEHIIWTLFQHTLQNEYELMRDRHLDQIMMCSMYGICKVKNIDLKFKIIVTAYKDLPHAVQETFKRVLIKEEEYDSIIVFYNSVFMQRLKTNILQYASTRPPTLSPIPHIPRSPYKFPSSPLRIPGGNIYISPLKSPYKISEGLPTPTKMTPRSRILVSIGESFGTSEKFQKINQMVCNSDRVLKRSAEGSNPPKPLKKLRFDIEGSDEADGSKHLPGESKFQQKLAEMTSTRTRMQKQKMNDSMDTSNKEEK",binding,[9],no binding
same,binding,[10],binds

# From publication PMC5384083
